# The campaign covered roughly 320,000 compounds. About 22,000 (6.9%) were called active. Inconclusive results, whose numbers are uncertain, are shown with a selection of clear calls. Calls follow the shape of the dose curve; as a rule, active = well fitted inhibition curve with a large enough effect; inconclusive = small, poorly fitted or top-dose-only effect, or another doubt; inactive = no such curve, though single readings can be large or run the other way. Where the call is inconclusive, the potency comes from a doubtful curve fit.
# Assay: Primary qHTS for delayed death inhibitors of the malarial parasite plastid, 96 hour incubation
# Settings: P. falciparum luciferase reporter growth; series mostly up to 28.7 µM
# In short: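 Delayed-death screen, second-generation endpoint: infected erythrocytes, 2% hematocrit, 0.05% parasitemia final; 96 hours at 37 C, 5% CO2; luciferase detection reagent; luminescence decrease equals reduced growth.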
# Potency is read from the fitted curve at half-maximal effect.
row,Structure (SMILES),Potency
1,O=C(N/N=C/c1ccc(OC2CSC2)cc1)c1ccccc1,"inconclusive: 13.1 µM [inhibitor, single point]"
2,C#CCOCCOCCOCCNc1nc(N2CCN(C(=O)CCCCCCCCCCNC(=O)[C@H]([C@@H](C)CC)n3cc(CCCCCN)nn3)CC2)nc(N2CCN(C(=O)CCCCCCCCCCNC(=O)[C@H]([C@@H](C)CC)n3cc(CCCCN=C(N)N)nn3)CC2)n1,active: 2.94 µM
3,C/C(CC(=O)N1CCN(C=O)CC1)=N\NC(=O)c1ccc(Cl)cc1,"inconclusive: 18.5 µM [inhibitor, single point]"
4,CC(NC(=O)CN(c1ccc(Cl)cc1)S(C)(=O)=O)c1ccccc1 (stereo not given),"inconclusive: 10.4 µM [inhibitor, single point]"
5,Cc1cccc(C(=O)C2CCN(S(=O)(=O)c3ccc(C(=O)O)cc3)CC2)c1,"inconclusive: 11.7 µM [inhibitor, partial curve]"
6,COc1ccc(-n2c(SCC(=O)Nc3nccs3)nc3sc4c(c3c2=O)CCN(C)C4)cc1,"inconclusive: 18.5 µM [inhibitor, single point]"
7,NNC(=O)c1cccc(O)c1,inactive
8,COc1ccccc1N(CC(=O)NC1CC2CCC1C2)S(=O)(=O)c1ccc(C)cc1 (stereo not given),"inconclusive: 13.1 µM [inhibitor, partial curve, poor fit]"
9,COc1ccc(NCc2nn(CC(=O)c3ccc(Br)cc3)c3[n+]2CCCCC3)cc1,"inconclusive: 1.04 µM [inhibitor, full curve, poor fit]"
10,CC(C)(C)OC(=O)N1CCC[C@H]1c1nnc(SCc2ccccc2)o1,active: 11.7 µM
11,CC1=Nc2cc(C(=O)O)ccc2Sc2c(C)ccc(C)c21,"inconclusive: 10.4 µM [inhibitor, single point]"
12,Cc1nc2ccc(NC(=S)N3CCC(C)CC3)cc2nc1C,"inconclusive: 1.65 µM [inhibitor, partial curve, poor fit]"
13,CC(C)(C)NC(=O)c1ccc(Sc2ccccc2)c([N+](=O)[O-])c1,"inconclusive: 18.5 µM [inhibitor, single point]"
14,CC(=O)c1cccc(NC(=O)C(C)OC(=O)CCN=C2NS(=O)(=O)c3ccccc32)c1 (stereo not given),"inconclusive: 3.7 µM [inhibitor, single point]"
15,Clc1ccc(C2[C@H]3CN(CC4CCCCC4)[C@H](c4ccccc4)C34CC2(c2ccccc2)C4)cn1 (stereo not given in full),"inconclusive: 2.62 µM [inhibitor, single point]"
16,CC(C)(C)NC(=O)C(c1ccc(F)cc1)N(Cc1ccccc1Cl)C(=O)c1ccn[nH]1 (stereo not given),"inconclusive: 10.4 µM [inhibitor, partial curve]"
17,COc1ccc(OC)c(NC(=O)CC2C(=O)NCCN2C(=O)c2ccccc2)c1 (stereo not given),"inconclusive: 16.5 µM [inhibitor, single point]"
18,Cc1cccc(Cc2nnc(CCC(=O)N(C)C3CCOC3)o2)c1 (stereo not given),"inconclusive: 2.62 µM [inhibitor, full curve]"
19,COc1ccc2c(=O)c(C(=O)NCCc3ccc(OC)c(OC)c3)c[nH]c2c1,"inconclusive: 0.37 µM [inhibitor, partial curve, poor fit]"
20,C/C(CC(=O)Nc1ccc2c(c1)OCCO2)=N\NC(=O)C(=O)Nc1ccccc1C,inactive

# By substructure, the entries above with a COOH group.
row,Structure (SMILES),Potency
5,Cc1cccc(C(=O)C2CCN(S(=O)(=O)c3ccc(C(=O)O)cc3)CC2)c1,"inconclusive: 11.7 µM [inhibitor, partial curve]"
11,CC1=Nc2cc(C(=O)O)ccc2Sc2c(C)ccc(C)c21,"inconclusive: 10.4 µM [inhibitor, single point]"

# Remaining list, next part:

row,Structure (SMILES),Potency
1,COCCNC(=O)C1CCC(=O)N1S(=O)(=O)c1ccc(C)cc1 (stereo not given),"inconclusive: 14.7 µM [inhibitor, single point]"
2,O=C(CSc1ccc(-c2ccco2)nn1)Nc1ccc(F)cc1,inactive
3,O=C(C1CC(=O)N(c2ccc(F)cc2)C1)N1CCC(c2nc3ccccc3[nH]2)CC1 (stereo not given),active: 8.28 µM
4,COc1cc(C2Nc3ccc4ncccc4c3C3=C2C(=O)CCC3)cc(OC)c1O (stereo not given),inactive
5,O=C(NCC(c1ccco1)N1CCN(c2ccc(F)cc2)CC1)OCc1ccccc1 (stereo not given),"inconclusive: 13.1 µM [inhibitor, single point]"
6,COc1ccc(CNCc2ccc(F)cc2)c(OC)c1,"inconclusive: 18.5 µM [inhibitor, single point]"
7,COc1cccc(S(=O)(=O)NCc2ccc(C(=O)NCc3ccccn3)cc2)c1,active: 2.94 µM
8,CN(c1ccccc1)S(=O)(=O)c1ccc(C(=O)Nc2nnc(C3CC3)s2)cc1,"inconclusive: 5.86 µM [inhibitor, partial curve]"
9,COc1ccc(-c2nn(CCC(=O)O)cc2/C=N/NC(N)=S)cc1,inactive
10,CCOC(=O)C1C(c2ccc(C(=O)O)cc2)NC(=O)NC1(O)C(F)(F)F (stereo not given),inactive
11,Cc1cc(C(=O)N2CCCC(C(=O)c3ccc(Oc4ccccc4)cc3)C2)n[nH]1 (stereo not given),"inconclusive: 13.1 µM [inhibitor, single point]"
12,CC(=O)N[C@@H](Cc1c[nH]c2ccccc12)C(=O)OCC(=O)Nc1ccc(Cl)c(S(=O)(=O)N(C)C)c1,"inconclusive: 2.62 µM [inhibitor, full curve, poor fit]"
13,CCOC(=O)C1=C(C)NC2=C(C(=O)C(C(=O)OCC)C(c3ccc(OC)cc3)C2)C1c1ccccn1 (stereo not given),inactive
14,Cc1ccc(S(=O)(=O)NCCC(=O)Nc2ncccc2O)cc1C,inactive
15,COc1ccc(S(=O)(=O)N2CCC(C(=O)N3CCCC3)CC2)cc1Cl,"inconclusive: 3.7 µM [inhibitor, partial curve, poor fit]"
16,O=C1[C@@H]2Cc3c([nH]c4ccccc34)C(c3cccc(Br)c3)N2C(=O)CN1C1CCN(Cc2ccccc2)CC1 (stereo not given in full),"inconclusive: 1.65 µM [inhibitor, full curve]"
17,COc1ccc(N2Cc3cccc(C(=O)O)c3C2=O)cc1,inactive
18,CC(=O)c1cccc(NC(=O)C2CCN(C(=O)c3cccs3)CC2)c1,"inconclusive: 11.7 µM [inhibitor, single point]"
19,COc1ccc(-c2cc(C(F)(F)F)nc(SCC(=O)N(C)Cc3cn(C)nc3C)n2)cc1OC,"inconclusive: 9.28 µM [inhibitor, partial curve, poor fit]"
20,CCn1c(C)c(C2=CCN(S(=O)(=O)c3ccccc3)CC2)c2ccccc21,"inconclusive: 18.5 µM [inhibitor, single point]"

# From PubChem BioAssay AID504834 (National Center for Advancing Translational Sciences (NCATS), 2011)
